# This is one part of the list.
# Protein sequences, listed by entry. Tags and fused reporters are not part of them. Lines headed by an entry give the natural chain unless they say otherwise; changes in a name come on top.
# UniProt Q9Y2D2: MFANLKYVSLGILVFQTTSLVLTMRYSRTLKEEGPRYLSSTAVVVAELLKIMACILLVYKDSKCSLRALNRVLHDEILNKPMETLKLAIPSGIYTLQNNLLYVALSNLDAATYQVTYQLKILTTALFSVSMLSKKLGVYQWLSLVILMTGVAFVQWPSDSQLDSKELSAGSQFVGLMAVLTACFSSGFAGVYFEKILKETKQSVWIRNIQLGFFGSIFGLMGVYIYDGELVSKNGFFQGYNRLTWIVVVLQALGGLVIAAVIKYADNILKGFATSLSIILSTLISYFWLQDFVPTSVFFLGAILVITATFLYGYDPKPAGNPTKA
# UniProt Q0VAQ4: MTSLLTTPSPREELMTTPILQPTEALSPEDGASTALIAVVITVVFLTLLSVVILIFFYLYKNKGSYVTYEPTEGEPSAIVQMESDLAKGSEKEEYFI
# UniProt Q9BZD2: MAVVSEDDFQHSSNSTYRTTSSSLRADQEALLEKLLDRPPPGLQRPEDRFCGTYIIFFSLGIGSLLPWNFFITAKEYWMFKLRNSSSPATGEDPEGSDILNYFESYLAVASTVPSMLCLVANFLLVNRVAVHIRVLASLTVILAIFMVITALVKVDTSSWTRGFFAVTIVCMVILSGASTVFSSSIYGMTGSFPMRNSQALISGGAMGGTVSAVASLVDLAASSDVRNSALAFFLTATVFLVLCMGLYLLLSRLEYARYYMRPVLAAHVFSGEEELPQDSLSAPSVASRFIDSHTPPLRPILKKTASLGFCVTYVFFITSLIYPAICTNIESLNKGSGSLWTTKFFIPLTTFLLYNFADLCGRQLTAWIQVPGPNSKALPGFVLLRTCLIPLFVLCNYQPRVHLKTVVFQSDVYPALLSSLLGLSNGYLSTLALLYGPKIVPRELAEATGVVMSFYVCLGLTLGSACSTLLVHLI
# UniProt O94956: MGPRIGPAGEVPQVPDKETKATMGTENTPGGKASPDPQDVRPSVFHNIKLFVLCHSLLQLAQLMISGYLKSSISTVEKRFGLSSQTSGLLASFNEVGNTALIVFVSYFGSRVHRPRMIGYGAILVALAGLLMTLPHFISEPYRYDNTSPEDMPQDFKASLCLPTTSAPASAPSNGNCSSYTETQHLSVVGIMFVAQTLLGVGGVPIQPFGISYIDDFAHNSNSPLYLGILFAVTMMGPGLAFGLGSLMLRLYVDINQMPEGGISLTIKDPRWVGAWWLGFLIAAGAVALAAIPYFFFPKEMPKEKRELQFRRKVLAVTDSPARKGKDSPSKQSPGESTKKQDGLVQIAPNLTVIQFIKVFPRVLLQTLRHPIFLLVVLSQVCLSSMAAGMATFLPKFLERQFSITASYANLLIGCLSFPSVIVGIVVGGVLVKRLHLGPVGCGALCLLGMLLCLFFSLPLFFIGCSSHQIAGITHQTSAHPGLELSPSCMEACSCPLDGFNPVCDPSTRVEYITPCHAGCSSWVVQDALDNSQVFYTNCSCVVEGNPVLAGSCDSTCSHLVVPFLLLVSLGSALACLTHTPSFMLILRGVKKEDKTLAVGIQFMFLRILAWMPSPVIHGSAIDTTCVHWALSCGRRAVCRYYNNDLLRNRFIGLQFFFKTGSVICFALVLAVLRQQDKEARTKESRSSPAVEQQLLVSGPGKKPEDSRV
# UniProt Q8IZM9: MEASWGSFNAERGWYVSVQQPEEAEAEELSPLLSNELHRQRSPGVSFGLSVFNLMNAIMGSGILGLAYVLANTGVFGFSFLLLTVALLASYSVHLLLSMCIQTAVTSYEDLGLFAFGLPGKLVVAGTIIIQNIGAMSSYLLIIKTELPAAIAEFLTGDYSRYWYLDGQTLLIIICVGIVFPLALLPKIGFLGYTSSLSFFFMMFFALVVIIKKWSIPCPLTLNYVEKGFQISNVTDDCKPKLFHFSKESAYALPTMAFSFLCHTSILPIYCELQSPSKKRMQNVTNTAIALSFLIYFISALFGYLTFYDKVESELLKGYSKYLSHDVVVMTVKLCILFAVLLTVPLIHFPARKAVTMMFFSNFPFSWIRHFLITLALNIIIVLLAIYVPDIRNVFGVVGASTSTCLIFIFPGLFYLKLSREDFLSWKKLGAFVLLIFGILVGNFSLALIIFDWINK
# UniProt P84022, whole entry, looked up: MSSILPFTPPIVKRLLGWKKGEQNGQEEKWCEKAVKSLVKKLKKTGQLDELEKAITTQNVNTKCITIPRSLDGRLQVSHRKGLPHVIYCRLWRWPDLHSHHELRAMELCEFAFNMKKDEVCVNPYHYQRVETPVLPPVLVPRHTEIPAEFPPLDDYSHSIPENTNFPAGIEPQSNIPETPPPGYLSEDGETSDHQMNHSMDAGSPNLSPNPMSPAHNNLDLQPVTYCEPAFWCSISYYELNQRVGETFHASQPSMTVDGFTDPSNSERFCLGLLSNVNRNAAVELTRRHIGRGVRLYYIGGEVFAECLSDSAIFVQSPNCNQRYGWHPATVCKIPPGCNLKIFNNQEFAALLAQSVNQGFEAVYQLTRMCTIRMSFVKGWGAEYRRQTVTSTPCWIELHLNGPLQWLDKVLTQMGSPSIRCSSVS
# UniProt Q6YBV0: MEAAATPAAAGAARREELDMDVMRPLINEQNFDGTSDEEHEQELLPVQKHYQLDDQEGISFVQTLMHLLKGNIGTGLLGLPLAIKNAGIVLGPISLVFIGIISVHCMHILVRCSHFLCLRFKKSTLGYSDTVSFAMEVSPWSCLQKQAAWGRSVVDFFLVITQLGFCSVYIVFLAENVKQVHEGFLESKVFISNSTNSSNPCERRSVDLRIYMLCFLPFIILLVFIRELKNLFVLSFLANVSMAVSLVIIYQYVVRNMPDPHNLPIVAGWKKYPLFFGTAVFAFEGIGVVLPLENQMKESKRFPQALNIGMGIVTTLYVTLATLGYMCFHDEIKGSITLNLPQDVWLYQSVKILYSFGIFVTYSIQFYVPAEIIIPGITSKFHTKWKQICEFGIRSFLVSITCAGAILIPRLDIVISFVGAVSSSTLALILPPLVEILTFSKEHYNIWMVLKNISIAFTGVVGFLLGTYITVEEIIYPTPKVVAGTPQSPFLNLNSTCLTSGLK
# UniProt Q8IY92: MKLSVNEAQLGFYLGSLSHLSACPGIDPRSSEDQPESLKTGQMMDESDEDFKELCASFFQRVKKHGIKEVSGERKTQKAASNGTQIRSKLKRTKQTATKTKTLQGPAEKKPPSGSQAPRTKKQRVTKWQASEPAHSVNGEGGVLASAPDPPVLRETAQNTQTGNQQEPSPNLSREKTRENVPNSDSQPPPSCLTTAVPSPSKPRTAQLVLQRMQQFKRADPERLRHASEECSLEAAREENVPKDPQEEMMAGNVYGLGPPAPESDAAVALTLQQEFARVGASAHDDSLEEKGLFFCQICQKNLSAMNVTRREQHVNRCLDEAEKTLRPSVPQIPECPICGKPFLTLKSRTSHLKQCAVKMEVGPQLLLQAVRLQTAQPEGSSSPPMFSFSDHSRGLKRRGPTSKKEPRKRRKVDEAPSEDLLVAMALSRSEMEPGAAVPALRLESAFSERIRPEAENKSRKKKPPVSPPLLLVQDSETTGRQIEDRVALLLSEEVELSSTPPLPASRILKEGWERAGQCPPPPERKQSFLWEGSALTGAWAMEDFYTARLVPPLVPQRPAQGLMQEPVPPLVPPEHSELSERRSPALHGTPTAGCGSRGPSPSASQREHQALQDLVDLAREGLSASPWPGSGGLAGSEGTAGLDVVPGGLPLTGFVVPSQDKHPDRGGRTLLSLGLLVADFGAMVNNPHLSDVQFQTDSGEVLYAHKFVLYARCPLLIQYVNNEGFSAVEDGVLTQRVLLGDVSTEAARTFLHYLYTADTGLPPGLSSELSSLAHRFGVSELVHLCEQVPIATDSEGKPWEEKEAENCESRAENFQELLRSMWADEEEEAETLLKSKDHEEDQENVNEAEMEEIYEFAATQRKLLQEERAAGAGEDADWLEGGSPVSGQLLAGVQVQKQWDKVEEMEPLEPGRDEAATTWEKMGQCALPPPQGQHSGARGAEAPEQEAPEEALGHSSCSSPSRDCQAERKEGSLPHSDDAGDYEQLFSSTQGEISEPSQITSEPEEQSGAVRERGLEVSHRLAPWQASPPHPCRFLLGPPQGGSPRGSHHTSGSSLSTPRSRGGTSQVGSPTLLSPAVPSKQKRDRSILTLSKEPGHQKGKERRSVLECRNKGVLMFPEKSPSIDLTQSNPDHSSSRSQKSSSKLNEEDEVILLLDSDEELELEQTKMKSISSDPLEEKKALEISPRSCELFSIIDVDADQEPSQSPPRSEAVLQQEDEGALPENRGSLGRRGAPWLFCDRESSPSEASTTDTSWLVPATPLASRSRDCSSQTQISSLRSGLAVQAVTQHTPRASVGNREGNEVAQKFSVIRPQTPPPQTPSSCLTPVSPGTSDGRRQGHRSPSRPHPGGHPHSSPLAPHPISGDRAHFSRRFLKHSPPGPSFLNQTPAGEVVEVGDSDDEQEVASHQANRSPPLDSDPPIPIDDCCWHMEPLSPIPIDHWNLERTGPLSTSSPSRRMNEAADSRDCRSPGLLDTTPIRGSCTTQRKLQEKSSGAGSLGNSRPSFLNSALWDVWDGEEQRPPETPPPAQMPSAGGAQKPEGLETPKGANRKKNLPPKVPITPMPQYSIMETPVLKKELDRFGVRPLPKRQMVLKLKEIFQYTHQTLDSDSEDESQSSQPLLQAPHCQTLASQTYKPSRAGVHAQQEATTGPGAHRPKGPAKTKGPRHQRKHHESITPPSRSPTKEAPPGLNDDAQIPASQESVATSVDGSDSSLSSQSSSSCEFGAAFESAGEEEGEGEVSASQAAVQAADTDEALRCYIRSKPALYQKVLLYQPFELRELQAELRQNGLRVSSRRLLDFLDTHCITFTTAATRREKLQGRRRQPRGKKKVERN
# UniProt Q96QE2: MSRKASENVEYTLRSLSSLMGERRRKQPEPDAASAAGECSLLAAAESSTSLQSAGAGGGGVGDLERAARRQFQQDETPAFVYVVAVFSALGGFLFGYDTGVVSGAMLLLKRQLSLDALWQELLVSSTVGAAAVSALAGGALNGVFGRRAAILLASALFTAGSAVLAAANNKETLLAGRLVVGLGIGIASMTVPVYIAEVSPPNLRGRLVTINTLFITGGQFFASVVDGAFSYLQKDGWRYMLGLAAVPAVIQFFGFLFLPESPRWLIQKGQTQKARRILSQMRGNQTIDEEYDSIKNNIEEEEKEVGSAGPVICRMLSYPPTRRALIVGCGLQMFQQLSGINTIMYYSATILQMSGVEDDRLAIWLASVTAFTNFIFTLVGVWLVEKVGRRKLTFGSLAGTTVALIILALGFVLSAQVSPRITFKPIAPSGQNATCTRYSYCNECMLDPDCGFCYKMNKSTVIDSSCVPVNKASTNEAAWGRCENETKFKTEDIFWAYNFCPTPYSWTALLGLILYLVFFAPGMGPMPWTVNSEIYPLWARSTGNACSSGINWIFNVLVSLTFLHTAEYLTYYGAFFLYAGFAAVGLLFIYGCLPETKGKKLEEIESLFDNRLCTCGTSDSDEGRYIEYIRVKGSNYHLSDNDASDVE
# UniProt Q9Y2E8: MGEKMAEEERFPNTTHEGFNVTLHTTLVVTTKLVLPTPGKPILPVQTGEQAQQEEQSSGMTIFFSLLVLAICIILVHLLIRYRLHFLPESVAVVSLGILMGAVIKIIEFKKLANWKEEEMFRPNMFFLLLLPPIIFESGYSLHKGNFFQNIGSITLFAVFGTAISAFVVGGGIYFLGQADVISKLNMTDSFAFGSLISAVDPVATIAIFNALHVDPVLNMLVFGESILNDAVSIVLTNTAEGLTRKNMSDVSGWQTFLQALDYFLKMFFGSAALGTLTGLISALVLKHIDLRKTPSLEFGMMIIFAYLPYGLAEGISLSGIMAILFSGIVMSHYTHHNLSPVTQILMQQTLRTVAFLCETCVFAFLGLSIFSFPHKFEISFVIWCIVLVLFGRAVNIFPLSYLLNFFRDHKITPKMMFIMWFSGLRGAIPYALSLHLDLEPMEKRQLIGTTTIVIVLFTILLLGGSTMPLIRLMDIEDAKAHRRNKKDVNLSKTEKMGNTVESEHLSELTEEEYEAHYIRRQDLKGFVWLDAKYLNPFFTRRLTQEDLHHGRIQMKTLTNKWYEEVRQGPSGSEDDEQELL
# UniProt Q9C0K1: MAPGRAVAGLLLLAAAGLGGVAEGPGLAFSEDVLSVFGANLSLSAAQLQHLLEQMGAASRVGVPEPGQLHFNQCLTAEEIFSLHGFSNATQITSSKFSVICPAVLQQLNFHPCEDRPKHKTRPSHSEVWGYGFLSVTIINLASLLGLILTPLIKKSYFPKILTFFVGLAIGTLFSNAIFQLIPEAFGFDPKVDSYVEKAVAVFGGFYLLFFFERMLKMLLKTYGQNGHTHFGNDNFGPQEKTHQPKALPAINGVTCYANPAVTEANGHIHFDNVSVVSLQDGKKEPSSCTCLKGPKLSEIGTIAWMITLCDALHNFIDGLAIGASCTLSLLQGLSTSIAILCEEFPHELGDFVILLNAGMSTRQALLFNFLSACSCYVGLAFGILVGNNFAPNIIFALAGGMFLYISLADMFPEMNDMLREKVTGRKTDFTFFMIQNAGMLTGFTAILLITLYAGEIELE
# Assays:
# Test in all cases: log2 fold change, soluble protein after heating vs DMSO (PISA); higher = thermal stabilisation; K562 lysate, 10 uM; active = over 0.2 and 3.5 SD of the protein, either way, in both replicates (recomputed)
# [1] = compound: CC1=C2C(=CC=C1)N=C(N(C2=O)C3=CC=CC=C3C)CN4C=NC5=C(N=CN=C54)N
# How it was run: (§1)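 K562 pellets were dounce-homogenised in PBS pH 7.4 containing 1 mM MgCl2, and the crude extract, at 1 mg/mL protein, was exposed to 10 μM compound for 30 min. Aliquots were heated for 3 min across 48°C-58°C, pooled, brought to 0.5% NP-40 at 4°C and spun at 21,000xg for 90 min, with the supernatant taken as soluble protein. TMTpro 16plex LC-MS/MS with equalised channel sums quantified that protein. Values are log-two fold changes in thermal stability relative to solvent controls, taken from duplicates.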
# [2] = compound: c1ccc([C@@H]2C[C@H]2NC2CCNCC2)cc1
# How it was run: as §1
# [3] = compound: Cc1sc2c(c1C)C(c1ccc(Cl)cc1)=N[C@@H](CC(=O)OC(C)(C)C)c1nnc(C)n1-2
# How it was run: as §1
# [4] = compound: C1=CC=C(C=C1)[C@H](COC2=CC3=C(C=C2)NC(=O)N3)NC(=O)C4=CC=CN(C4=O)CC5=CC(=C(C=C5)F)F
# How it was run: as §1
# [5] = compound: CC1=C(SC2=C1C(=N[C@H](C3=NN=C(N32)C)CC(=O)N)C4=CC=C(C=C4)Cl)C
# How it was run: as §1
target,measurement,setting,value
SLC35A3 isoform 2 (UniProt Q9Y2D2),log2 fold change,[1],inactive: 0.008
same,log2 fold change,[2],inactive: -0.57
SLC8B1 (UniProt Q6J4K2),log2 fold change,[1],inactive: -0.05
same,log2 fold change,[3],inactive: 0
same,log2 fold change,[2],inactive: -0.042
SLC46A1 (UniProt Q96NT5),log2 fold change,[3],inactive: 0.088
same,log2 fold change,[2],inactive: 0.029
SMAGP (UniProt Q0VAQ4),log2 fold change,[3],inactive: -0.053
same,log2 fold change,[2],inactive: 0.031
SLC29A3 (UniProt Q9BZD2),log2 fold change,[2],inactive: -0.012
SLC45A4 isoform 3 (UniProt Q5BKX6),log2 fold change,[4],inactive: 0.035
same,log2 fold change,[5],inactive: 0.008
same,log2 fold change,[1],inactive: 0.04
same,log2 fold change,[2],inactive: -0.025
SLCO2B1 (UniProt O94956),log2 fold change,[2],inactive: -0.104
SLC25A39 (UniProt Q9BZJ4),log2 fold change,[3],inactive: 0.385
same,log2 fold change,[2],inactive: 0.094
SLC3A2 (UniProt F5H867),log2 fold change,[4],inactive: -0.066
same,log2 fold change,[5],inactive: 0.124
same,log2 fold change,[2],inactive: -0.127
SLC39A6 (UniProt Q13433),log2 fold change,[2],inactive: 0.092
SLC35D1 (UniProt Q9NTN3),log2 fold change,[1],inactive: 0.135
SLC66A1 (UniProt Q6ZP29),log2 fold change,[4],inactive: -0.025
same,log2 fold change,[5],inactive: -0.041
same,log2 fold change,[2],inactive: 0
SLC38A6 isoform 2 (UniProt Q8IZM9),log2 fold change,[1],inactive: 0.082
SLC39A1 (UniProt Q9NY26),log2 fold change,[4],inactive: -0.218
same,log2 fold change,[5],inactive: -0.021
same,log2 fold change,[3],inactive: -0.089
same,log2 fold change,[2],inactive: -0.174
SMAD3 (UniProt P84022),log2 fold change,[3],inactive: 0.141
SLC36A4 (UniProt Q6YBV0),log2 fold change,[4],inactive: 0.163
same,log2 fold change,[5],inactive: 0.105
same,log2 fold change,[3],inactive: -0.149
same,log2 fold change,[2],inactive: 0.022
SLC35B1 isoform 2 (UniProt P78383),log2 fold change,[1],inactive: 0.012
same,log2 fold change,[3],inactive: 0.072
same,log2 fold change,[2],inactive: -0.137
SLC66A2 (UniProt Q8N2U9),log2 fold change,[4],inactive: -0.209
same,log2 fold change,[5],inactive: -0.02
same,log2 fold change,[3],inactive: 0.093
SLC3A2 (UniProt F5GZS6),log2 fold change,[4],inactive: 0.074
same,log2 fold change,[5],inactive: -0.015
same,log2 fold change,[3],inactive: 0.169
same,log2 fold change,[2],inactive: 0.097
SLC25A16 (UniProt P16260),log2 fold change,[1],inactive: 0.039
same,log2 fold change,[2],inactive: 0.024
SLX4 (UniProt Q8IY92),log2 fold change,[3],inactive: -0.232
SLC35E2B (UniProt P0CK96),log2 fold change,[1],inactive: 0.098
SLC22A18 (UniProt Q96BI1),log2 fold change,[4],inactive: 0.07
same,log2 fold change,[5],inactive: 0.048
same,log2 fold change,[1],inactive: -0.036
same,log2 fold change,[2],inactive: -0.088
SLCO4A1 (UniProt Q96BD0),log2 fold change,[4],inactive: 0.203
same,log2 fold change,[5],inactive: -0.372
same,log2 fold change,[2],inactive: -0.013
SLC2A13 (UniProt Q96QE2),log2 fold change,[3],inactive: -0.187
same,log2 fold change,[2],inactive: 0
SLC41A1 (UniProt Q8IVJ1),log2 fold change,[2],inactive: -0.016
SLC26A11 (UniProt Q86WA9),log2 fold change,[2],inactive: -0.015
SLC25A28 (UniProt Q96A46),log2 fold change,[1],inactive: 0.179
SLC50A1 (UniProt Q9BRV3),log2 fold change,[2],inactive: -0.17
SLC9A8 isoform 2 (UniProt Q9Y2E8),log2 fold change,[4],inactive: -0.022
same,log2 fold change,[5],inactive: -0.082
same,log2 fold change,[3],inactive: 0.01
same,log2 fold change,[2],inactive: -0.039
SLC39A8 (UniProt Q9C0K1),log2 fold change,[1],inactive: 0.177
same,log2 fold change,[2],inactive: -0.031
SLC40A1 (UniProt Q9NP59),log2 fold change,[1],inactive: 0.013
same,log2 fold change,[3],inactive: -0.107
same,log2 fold change,[2],inactive: -0.205
SLC25A36 (UniProt Q96CQ1),log2 fold change,[1],inactive: 0.013
same,log2 fold change,[3],inactive: 0.035
same,log2 fold change,[2],inactive: 0

# Exported with tabs: part of the list above
target	measurement	setting	value
SLC36A4 (UniProt Q6YBV0)	log2 fold change	[4]	inactive: 0.163
same	log2 fold change	[5]	inactive: 0.105
same	log2 fold change	[3]	inactive: -0.149
same	log2 fold change	[2]	inactive: 0.022
SLC35B1 isoform 2 (UniProt P78383)	log2 fold change	[1]	inactive: 0.012
same	log2 fold change	[3]	inactive: 0.072
same	log2 fold change	[2]	inactive: -0.137
SLC66A2 (UniProt Q8N2U9)	log2 fold change	[4]	inactive: -0.209
same	log2 fold change	[5]	inactive: -0.02
same	log2 fold change	[3]	inactive: 0.093
SLC3A2 (UniProt F5GZS6)	log2 fold change	[4]	inactive: 0.074
same	log2 fold change	[5]	inactive: -0.015
same	log2 fold change	[3]	inactive: 0.169
same	log2 fold change	[2]	inactive: 0.097

# From the supplement of paper PMC10849652
